# Results from one PubChem assay

From PubChem BioAssay record AID1963591 (Tox21, 2024).

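CRE-bla HEK293T reporter cells under cAMP stimulation; the beta-lactamase FRET ratio is measured about 3 hours after compound addition. Each compound was run as a concentration series, mostly reaching a top of 92.4 µM. Fitted potency from the dose curve; a lower value means a more potent compound. Calls come from the whole dose curve: active means a well-fitted inhibition curve with enough effect in repeat runs, inconclusive means weak, mixed or opposite-direction curves, and inactive means a flat curve.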

Values are in µM. All entries here are filed as inconclusive. Only part of the assay is shown, chiefly results filed as inconclusive. Potencies fitted to partial, single-point or poorly fitting curves are rough. Some entries filed as inconclusive have a full curve. The first word of each remark tells which way the curve ran; it can be opposite to the aim of the assay.

structure	potency (µM)	remark
C=C1C[C@@H]2[C@H](CC[C@]3(C)C(=O)CC[C@@H]23)[C@@]2(C)C=CC(=O)C=C12	13.33	fluorescent, partial curve, poor fit
CCCCC1C(=O)N(c2ccccc2)N(c2ccc(O)cc2)C1=O (stereo unspecified)	26.6	partial curve
CCCCCCCC[P+](CCCCCCCC)(CCCCCCCC)CCCCCCCC	43.01	cytotoxic, partial curve, poor fit
CC1(C)O[C@@H]2C[C@H]3[C@@H]4C[C@H](F)C5=CC(=O)C=C[C@]5(C)[C@H]4[C@@H](O)C[C@]3(C)[C@]2(C(=O)CO)O1	23.71	fluorescent
CN(C)C(=O)NC1(c2ccccc2)CCN(CCC[C@]2(c3ccc(Cl)c(Cl)c3)CCCN(C(=O)c3ccccc3)C2)CC1	14.57	activator
C[C@H]1O[C@@H](O[C@H]2[C@@H](O)C[C@H](O[C@H]3[C@@H](O)C[C@H](O[C@H]4CC[C@@]5(C)[C@H](CC[C@@H]6[C@@H]5CC[C@]5(C)[C@@H](C7=CC(=O)OC7)CC[C@]65O)C4)O[C@@H]3C)O[C@@H]2C)C[C@H](O)[C@@H]1O	0.1545	fluorescent, full curve
COc1ccc(OC(F)(F)F)cc1CN[C@H]1CCCN[C@H]1c1ccccc1	61.13	fluorescent, partial curve, poor fit
CCCCCCCC/C=C\CCCCCCCC(=O)N(C)CC(=O)O	61.13	rising, partial curve
COC(=O)C1=C(C)NC(C)=C(C(=O)OCCN(C)Cc2ccccc2)C1c1cccc([N+](=O)[O-])c1 (stereo unspecified)	68.17	single point
CC1(C)O[C@@H]2C[C@H]3[C@@H]4C[C@H](F)C5=CC(=O)CC[C@]5(C)[C@H]4[C@@H](O)C[C@]3(C)[C@]2(C(=O)CO)O1	23.71	fluorescent, partial curve, poor fit
CC1(C)CCC(Cc2ccc(Cl)cc2)C1(O)Cn1cncn1 (stereo unspecified)	68.59	fluorescent, single point
CCC(=O)/C=C/c1ccc(OC)cc1	68.59	activator, single point
ClC1=C(Cl)[C@]2(Cl)[C@@H]3[C@@H](Cl)[C@H]4O[C@H]4[C@@H]3C1(Cl)C2(Cl)Cl	61.13	rising, single point
CS(=O)(=O)c1ccc([C@@H](C[C@H]2CCC(=O)C2)C(=O)Nc2cnccn2)cc1Cl	63.9	activator, single point
CN1C[C@H](C(=O)N[C@]2(C)O[C@@]3(O)[C@@H]4CCCN4C(=O)[C@H](Cc4ccccc4)N3C2=O)C[C@@H]2c3cccc4[nH]cc(c34)C[C@H]21	13.33	activator, full curve, poor fit
C=CC(=O)OCC(COC(=O)C=C)(COC(=O)C=C)COC(=O)C=C	54.48	rising, partial curve
Oc1ccc(Cl)cc1Sc1cc(Cl)ccc1O	68.45	inhibitor, single point
CN(C)c1ccc(O)c2c1C[C@H]1C[C@H]3[C@H](N(C)C)C(=O)C(C(N)=O)=C(O)[C@@]3(O)C(=O)C1=C2O	29.85	inhibitor
O=C(c1ccccc1)c1ccc(O)cc1O	25.44	activator, full curve
CN(C)S(=O)(=O)N(SC(F)(Cl)Cl)c1ccccc1	19.33	rising, full curve, poor fit
O=C(O)Cc1ccc(-c2ccccc2)cc1	33.49	fluorescent, partial curve, poor fit
CN1CCN(CCC(=O)N2c3ccccc3Sc3ccc(C(F)(F)F)cc32)CC1	33.49	-
C[C@]12CC[C@H]3[C@@H](CCC4=CC(=O)CC[C@@]43C)[C@@H]1CC[C@@H]2C(=O)O	26.6	fluorescent, partial curve
CCC(C)(C)C(=O)O[C@H]1C[C@@H](C)C=C2C=C[C@H](C)[C@H](CC[C@@H]3C[C@@H](O)CC(=O)O3)[C@H]21	18.83	activator, partial curve, poor fit
Cc1cc(=O)c2c(O)c3c(O)cc(=O)c4c3c3c(cc(O)c1c23)C(C)(C)C=4O	5.171	fluorescent
CC(C)(C)C(O)C(Oc1ccc(Cl)cc1)n1cncn1 (stereo unspecified)	27.31	-
c1cc(N(CC2CO2)CC2CO2)ccc1OCC1CO1 (stereo unspecified)	40.32	fluorescent
Cc1cc(Cc2cc(C)cc(C(C)(C)C)c2O)c(O)c(C(C)(C)C)c1	24.46	-
CCCN(CCC)C(=O)C(CCC(=O)OCCCN1CCN(CCOC(=O)Cc2c(C)n(C(=O)c3ccc(Cl)cc3)c3ccc(OC)cc23)CC1)NC(=O)c1ccccc1 (stereo unspecified)	23.71	fluorescent, partial curve
Cc1cc(C)c(/C=C2\C(=O)Nc3ccccc32)[nH]1	26.6	-
Cc1cccc(Nc2ccccc2C(=O)O)c1C	38.57	fluorescent, partial curve
O=Nc1ccc(Nc2ccccc2)cc1	68.94	-

The last 4 entries again:

{"structure": "CCCN(CCC)C(=O)C(CCC(=O)OCCCN1CCN(CCOC(=O)Cc2c(C)n(C(=O)c3ccc(Cl)cc3)c3ccc(OC)cc23)CC1)NC(=O)c1ccccc1", "stereo": "stereo unspecified", "potency (µM)": "23.71", "remark": "fluorescent, partial curve"}
{"structure": "Cc1cc(C)c(/C=C2\\C(=O)Nc3ccccc32)[nH]1", "potency (µM)": "26.6"}
{"structure": "Cc1cccc(Nc2ccccc2C(=O)O)c1C", "potency (µM)": "38.57", "remark": "fluorescent, partial curve"}
{"structure": "O=Nc1ccc(Nc2ccccc2)cc1", "potency (µM)": "68.94"}